Our source for the binding signal values is publication PMC7819943, “Rice protein-binding microarrays: a tool to detect cis-acting elements near promoter regions in rice”.

Protein sequences, listed by entry. Tags and fused reporters are not part of them.
UniProt Q0JBA9, entry or part of it: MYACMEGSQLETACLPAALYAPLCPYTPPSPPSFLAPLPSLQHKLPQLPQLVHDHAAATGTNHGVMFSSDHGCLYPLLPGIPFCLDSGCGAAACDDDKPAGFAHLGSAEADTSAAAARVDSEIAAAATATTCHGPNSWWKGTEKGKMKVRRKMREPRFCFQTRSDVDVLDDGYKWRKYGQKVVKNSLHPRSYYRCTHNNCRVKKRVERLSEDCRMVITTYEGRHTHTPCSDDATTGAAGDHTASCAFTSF

The other results are listed elsewhere or left out.

This assay concerns the target OsWRKY34 (Oryza sativa, UniProt Q0JBA9 1-250). The assay can be described thus: protein-binding microarray (RPBM); PBS, 2% BSA, 51.3 ng/ul salmon testes DNA, 50 uM zinc acetate, 200 nM TF, 25 C, 1 h; high values mean tight binding. To be noted: protein: recombinant; tags: N-terminal polyhistidine and DsRed monomer fusion (pET32a); label: CyDye5-dUTP incorporated in the synthesized complementary strand; 3' TTTTT single-stranded linker to array surface; dsDNA, one strand shown. Put shortly: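 Binding signal is defined as the fluorescence intensity of each feature in arbitrary units, read on an Axon 4000B scanner. Transcription factors with N-terminal polyhistidine and DsRed fusions came from E. coli BL21-CodonPlus and were purified on Ni–NTA. They were incubated at 200 nM for 1 h at 25 °C on a custom Agilent array that had been made double-stranded with Cy5-dUTP, with 50 µM zinc acetate present, and the array was washed.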
In the case of “TATATTTGATCTTCTTCCGTGTGGGGTCCCTTCTTGCTCTCGGAGTCACCTAGTGCAG”, the binding signal was 10900 fluorescence intensity (a.u.). Then “TTTGAATTGTGGGGTTGTAATGTTTGTTGGGTCATGATGACGGAGTCACCTAGTGCAG”, with 14800 fluorescence intensity (a.u.); and “CTGTAACCCCATTTTAAACCAAGTCTGTCCACTTCCTTGCCGGAGTCACCTAGTGCAG”, with 9290 fluorescence intensity (a.u.); and “AGATATTATTTTAGTGTTGTGCATCTACCCGTCCAACTCACGGAGTCACCTAGTGCAG”, with 8690 fluorescence intensity (a.u.). As to “ACAGATCCCACATTCCCACTACTGCATGCTTAGTTGATTACGGAGTCACCTAGTGCAG”, the binding signal is 9370 fluorescence intensity (a.u.). For “TGACTGCTTGCATTTGGTGTTATTCTCTGCCATATATAAACGGAGTCACCTAGTGCAG”, the binding signal was 9290 fluorescence intensity (a.u.). The figure for “CCACTTTGCCTCTTTCCTCTCCCTTATGCCGCATTTTTCTCGGAGTCACCTAGTGCAG” is 8420 fluorescence intensity (a.u.); for “AAGAGCTGGGTTTCTTCTTCATATTCTTAGAAGTTGACTACGGAGTCACCTAGTGCAG” it is 9470 fluorescence intensity (a.u.). As for “CACGACGCCTCACACACATATTTTGCTTCCTTGCTTGTGACGGAGTCACCTAGTGCAG”, the binding signal was 11000 fluorescence intensity (a.u.).

In the case of “AACACAACACGATACACACTTTAAAATCCCTAAAAAGACACGGAGTCACCTAGTGCAG”, the binding signal was 8690 fluorescence intensity (a.u.).

For the sequence “AGACACAACCCTTATCATCGCCGCCGACTCGACGCCACCACGGAGTCACCTAGTGCAG”, the binding signal is 8880 fluorescence intensity (a.u.). The figure for “TTCCCTCTCTATTATGGATCATGTGCCGGGTATCATCACACGGAGTCACCTAGTGCAG” is 8090 fluorescence intensity (a.u.). On to “GCATTGTACATTTCGTAGTACTATTCTAGCATTGCTTAGTCGGAGTCACCTAGTGCAG”, for which the binding signal is 9640 fluorescence intensity (a.u.). Take “GATGCCTTGGGGTTCGGTCTTCCACTTGACATAGTATCCACGGAGTCACCTAGTGCAG”: the binding signal is 8090 fluorescence intensity (a.u.).

Turning to “ATTAAAAATACACTATTCCTCTTTTTTTTTCTCATATGTTCGGAGTCACCTAGTGCAG”, the binding signal was 10100 fluorescence intensity (a.u.). Turning to “CTACAGTCAAAAGTTCGCAACACGCAAGTATGTTCATTTTCGGAGTCACCTAGTGCAG”, the binding signal is 8940 fluorescence intensity (a.u.).

As to “TGTCCTAGCAATTCTCTCTCTAGCTCCAGTATTAATTTCTCGGAGTCACCTAGTGCAG”, the binding signal is 9270 fluorescence intensity (a.u.). On to “TTCCACAGAGTCAAGTCCACAGAACGTATGCTCCATGTTCCGGAGTCACCTAGTGCAG”, for which the binding signal was 8160 fluorescence intensity (a.u.). Then “TCGATTTGGTTTCTGGCTGGATTGGATCCGGGGAGGAGGACGGAGTCACCTAGTGCAG”, with 10300 fluorescence intensity (a.u.); and “CAATTTTTCTCTCTTCTCTAGTCTCTCTTTTTGTTTCGTCCGGAGTCACCTAGTGCAG”, with 9730 fluorescence intensity (a.u.). As to “ACAATGACTGCGACTTACTTCGTCCTCCCTCGGCGCGATACGGAGTCACCTAGTGCAG”, the binding signal is 9000 fluorescence intensity (a.u.). “GTTTTGTTTAGTTTAGGGGTGGAGATTTCTGGTTTTGTGGCGGAGTCACCTAGTGCAG”: the binding signal was 12400 fluorescence intensity (a.u.). On to “ATAACATTTTTTTACTGTGTATTTGGGGATCTCAGAAATTCGGAGTCACCTAGTGCAG”, for which the binding signal was 9040 fluorescence intensity (a.u.). Then “ACACTTCCCAAAACCCCAAACCGCCCATATCTCTCTCCTCCGGAGTCACCTAGTGCAG”, with 8130 fluorescence intensity (a.u.); and “GGGTGTAAAGTTTTTTTGTTTCACATCGGGTATTATATAGCGGAGTCACCTAGTGCAG”, with 8480 fluorescence intensity (a.u.); and “ATTCTAGAACTCAAATATCTCTACAAGTTTTTATTTTCGTCGGAGTCACCTAGTGCAG”, with 8530 fluorescence intensity (a.u.). “TTGACACTGTTGACTTTTTAATATATGTTTGACTGTTCGTCGGAGTCACCTAGTGCAG”: the binding signal was 20400 fluorescence intensity (a.u.).

With “TGCCAGCGAACACGTCTACGGTACACTCCTCGATCGCCTCCGGAGTCACCTAGTGCAG”, the binding signal is 8550 fluorescence intensity (a.u.). With “AAACTGGAACCATTCTCTTCTTCTTTTTTCCATTGATGAACGGAGTCACCTAGTGCAG”, the binding signal is 9290 fluorescence intensity (a.u.). Take “CACTCCTCTGCTGCTCGTCGTCAATGCCATCCTCATCATGCGGAGTCACCTAGTGCAG”: the binding signal is 10500 fluorescence intensity (a.u.). Regarding “GATTTTAGGGGTTTTTCATCGAATTTTATTTTTCATCACTCGGAGTCACCTAGTGCAG”, the binding signal is 9850 fluorescence intensity (a.u.). Turning to “TAGGACGGAGGGAGTAGTTTATTTTTCAGTCTTTACTTTTCGGAGTCACCTAGTGCAG”, the binding signal is 8520 fluorescence intensity (a.u.). Consider “GCAGACAGGACAATACATTATACAACCATACAGTCATACACGGAGTCACCTAGTGCAG”, for which the binding signal was 9330 fluorescence intensity (a.u.). For the sequence “ACCCCAGCAACTCGCCCTGCCGGCGCCTCCTCAACCACCACGGAGTCACCTAGTGCAG”, the binding signal is 13200 fluorescence intensity (a.u.).

Consider “GAGTAATGCCTTTTAGCCTCATCTTCTTATGTTCTTTGTCCGGAGTCACCTAGTGCAG”, for which the binding signal was 10400 fluorescence intensity (a.u.).

On to “TGACATTCCACCCCATAAGTCATTTTGTTGCAAATACCCACGGAGTCACCTAGTGCAG”, for which the binding signal is 8180 fluorescence intensity (a.u.). The figure for “AGGCTAATATCCATATGTGTTGACTAAATTGTTCTTTGCTCGGAGTCACCTAGTGCAG” is 10300 fluorescence intensity (a.u.). As for “CGTTCGCCCGTCCGCTGCCGCCCTCCACCAGCCGCACCCGCGGAGTCACCTAGTGCAG”, the binding signal is 8580 fluorescence intensity (a.u.). Turning to “ACCAATGCAACCCAACGCAAGCGAAGCACATATGCCAAACCGGAGTCACCTAGTGCAG”, the binding signal was 8100 fluorescence intensity (a.u.). Take “AACTTGGCATATTGAAATTTCTACTGTCATGCTTCCTTGTCGGAGTCACCTAGTGCAG”: the binding signal was 10000 fluorescence intensity (a.u.). As for “ACTTCTTGTATTTACTGTTGACCAATTAGTCTCTTCCTAACGGAGTCACCTAGTGCAG”, the binding signal was 13100 fluorescence intensity (a.u.).

On to “ATTTTTGTTAGTTCTACTGCCAGTTTGACGCTATTTATTTCGGAGTCACCTAGTGCAG”, for which the binding signal was 8230 fluorescence intensity (a.u.).
